# Results as given in the supplement of paper PMC6411743.
# By UniProt entry, the sequences of proteins in these tests, tags left out. Where a name states a change or a piece, a line headed by the entry shows the natural chain unless it says otherwise.
# UniProt Q9NUA8: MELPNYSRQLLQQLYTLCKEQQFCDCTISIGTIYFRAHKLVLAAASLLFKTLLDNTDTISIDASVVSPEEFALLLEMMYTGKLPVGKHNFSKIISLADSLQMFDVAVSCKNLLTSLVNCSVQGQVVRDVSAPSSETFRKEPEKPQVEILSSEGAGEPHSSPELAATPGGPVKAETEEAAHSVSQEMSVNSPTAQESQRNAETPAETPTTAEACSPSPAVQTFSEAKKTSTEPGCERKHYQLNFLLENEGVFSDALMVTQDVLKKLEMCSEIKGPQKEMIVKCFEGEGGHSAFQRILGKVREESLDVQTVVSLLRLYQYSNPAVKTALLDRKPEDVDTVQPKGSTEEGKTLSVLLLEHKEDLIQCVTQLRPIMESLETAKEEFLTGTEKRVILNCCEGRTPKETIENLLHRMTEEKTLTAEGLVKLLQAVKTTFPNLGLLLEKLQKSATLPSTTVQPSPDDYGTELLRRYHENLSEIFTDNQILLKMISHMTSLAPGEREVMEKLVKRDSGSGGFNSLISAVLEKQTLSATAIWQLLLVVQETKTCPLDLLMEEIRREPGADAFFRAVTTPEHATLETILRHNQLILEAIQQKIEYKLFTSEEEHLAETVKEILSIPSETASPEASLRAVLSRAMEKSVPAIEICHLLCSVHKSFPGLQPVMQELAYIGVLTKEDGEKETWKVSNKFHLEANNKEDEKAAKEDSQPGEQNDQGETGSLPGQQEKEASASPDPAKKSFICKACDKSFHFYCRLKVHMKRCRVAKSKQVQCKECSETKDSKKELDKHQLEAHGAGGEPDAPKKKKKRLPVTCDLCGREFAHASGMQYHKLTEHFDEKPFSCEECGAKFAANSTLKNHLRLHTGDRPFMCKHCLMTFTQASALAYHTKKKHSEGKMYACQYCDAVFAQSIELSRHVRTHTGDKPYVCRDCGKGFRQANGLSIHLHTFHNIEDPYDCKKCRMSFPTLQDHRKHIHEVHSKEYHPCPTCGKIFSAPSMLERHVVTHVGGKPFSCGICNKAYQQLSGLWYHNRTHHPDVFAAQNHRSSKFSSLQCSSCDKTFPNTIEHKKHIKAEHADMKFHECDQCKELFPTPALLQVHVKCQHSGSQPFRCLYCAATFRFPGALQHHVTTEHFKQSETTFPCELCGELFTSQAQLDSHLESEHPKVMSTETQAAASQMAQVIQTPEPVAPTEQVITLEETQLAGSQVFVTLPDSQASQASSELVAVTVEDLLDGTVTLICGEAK
# UniProt Q9NWT6: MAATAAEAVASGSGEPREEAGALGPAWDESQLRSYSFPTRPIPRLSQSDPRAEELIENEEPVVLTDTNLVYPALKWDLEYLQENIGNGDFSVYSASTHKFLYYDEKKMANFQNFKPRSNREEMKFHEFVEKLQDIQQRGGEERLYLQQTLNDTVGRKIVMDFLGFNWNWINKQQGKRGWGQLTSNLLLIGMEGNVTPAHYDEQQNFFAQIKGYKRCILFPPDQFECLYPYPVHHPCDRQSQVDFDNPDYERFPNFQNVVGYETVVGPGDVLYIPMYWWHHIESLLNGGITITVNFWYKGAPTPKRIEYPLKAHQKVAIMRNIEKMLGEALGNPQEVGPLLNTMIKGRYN
# UniProt Q9NQ34: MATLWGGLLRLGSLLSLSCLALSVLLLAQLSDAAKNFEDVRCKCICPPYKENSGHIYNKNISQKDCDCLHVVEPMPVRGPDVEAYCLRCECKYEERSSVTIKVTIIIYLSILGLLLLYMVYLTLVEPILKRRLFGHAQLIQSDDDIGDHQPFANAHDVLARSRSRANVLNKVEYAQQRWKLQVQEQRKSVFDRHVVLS
# UniProt Q9NY27: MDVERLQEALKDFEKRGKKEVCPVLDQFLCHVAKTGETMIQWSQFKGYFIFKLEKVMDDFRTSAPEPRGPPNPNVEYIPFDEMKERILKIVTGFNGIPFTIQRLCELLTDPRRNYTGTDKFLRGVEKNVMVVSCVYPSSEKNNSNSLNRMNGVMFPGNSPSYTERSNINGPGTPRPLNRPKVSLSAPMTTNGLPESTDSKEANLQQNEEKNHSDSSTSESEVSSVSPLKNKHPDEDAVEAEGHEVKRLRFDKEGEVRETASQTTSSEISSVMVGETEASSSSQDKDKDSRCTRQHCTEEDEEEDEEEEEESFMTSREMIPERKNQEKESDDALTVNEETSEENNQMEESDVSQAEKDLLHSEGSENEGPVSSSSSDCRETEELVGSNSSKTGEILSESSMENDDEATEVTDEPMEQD
# UniProt Q9P0W2: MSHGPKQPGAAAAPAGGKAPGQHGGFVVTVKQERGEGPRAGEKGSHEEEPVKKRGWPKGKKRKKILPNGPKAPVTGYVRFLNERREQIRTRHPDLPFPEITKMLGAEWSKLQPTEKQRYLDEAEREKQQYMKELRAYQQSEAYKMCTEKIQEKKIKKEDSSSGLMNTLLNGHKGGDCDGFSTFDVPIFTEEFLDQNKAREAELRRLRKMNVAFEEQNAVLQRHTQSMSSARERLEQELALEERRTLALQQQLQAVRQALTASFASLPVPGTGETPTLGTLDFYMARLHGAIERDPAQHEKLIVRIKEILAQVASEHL
# UniProt Q9NUP9: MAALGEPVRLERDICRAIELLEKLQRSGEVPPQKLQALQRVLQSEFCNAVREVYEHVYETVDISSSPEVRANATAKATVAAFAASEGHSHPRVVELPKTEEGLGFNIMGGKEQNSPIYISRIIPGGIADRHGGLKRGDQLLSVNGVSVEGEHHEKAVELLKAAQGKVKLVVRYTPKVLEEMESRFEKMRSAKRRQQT
# UniProt Q9NZ45: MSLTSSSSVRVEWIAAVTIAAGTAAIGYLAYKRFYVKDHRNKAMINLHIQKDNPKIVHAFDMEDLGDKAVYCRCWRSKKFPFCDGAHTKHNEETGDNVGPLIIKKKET
# UniProt Q9NXE8: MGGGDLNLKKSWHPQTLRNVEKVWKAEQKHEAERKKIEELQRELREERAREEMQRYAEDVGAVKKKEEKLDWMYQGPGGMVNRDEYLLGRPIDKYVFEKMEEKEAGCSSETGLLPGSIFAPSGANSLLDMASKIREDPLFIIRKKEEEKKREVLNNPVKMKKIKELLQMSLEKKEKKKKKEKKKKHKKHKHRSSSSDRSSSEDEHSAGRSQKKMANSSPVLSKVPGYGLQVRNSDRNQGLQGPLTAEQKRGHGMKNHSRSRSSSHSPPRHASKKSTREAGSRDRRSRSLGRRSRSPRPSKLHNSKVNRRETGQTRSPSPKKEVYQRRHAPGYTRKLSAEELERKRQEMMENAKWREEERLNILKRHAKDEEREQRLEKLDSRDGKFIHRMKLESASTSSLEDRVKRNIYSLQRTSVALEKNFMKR
# UniProt Q9NVF7: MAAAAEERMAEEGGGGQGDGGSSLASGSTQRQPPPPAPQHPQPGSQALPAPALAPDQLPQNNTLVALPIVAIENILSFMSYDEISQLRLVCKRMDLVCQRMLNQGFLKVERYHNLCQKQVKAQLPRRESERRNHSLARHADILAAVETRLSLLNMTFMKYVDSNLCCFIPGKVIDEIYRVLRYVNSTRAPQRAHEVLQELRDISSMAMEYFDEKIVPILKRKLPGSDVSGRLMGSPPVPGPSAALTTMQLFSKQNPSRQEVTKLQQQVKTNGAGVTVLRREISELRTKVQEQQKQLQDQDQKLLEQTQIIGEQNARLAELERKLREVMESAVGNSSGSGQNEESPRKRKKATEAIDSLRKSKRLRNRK
# UniProt Q9NZ09: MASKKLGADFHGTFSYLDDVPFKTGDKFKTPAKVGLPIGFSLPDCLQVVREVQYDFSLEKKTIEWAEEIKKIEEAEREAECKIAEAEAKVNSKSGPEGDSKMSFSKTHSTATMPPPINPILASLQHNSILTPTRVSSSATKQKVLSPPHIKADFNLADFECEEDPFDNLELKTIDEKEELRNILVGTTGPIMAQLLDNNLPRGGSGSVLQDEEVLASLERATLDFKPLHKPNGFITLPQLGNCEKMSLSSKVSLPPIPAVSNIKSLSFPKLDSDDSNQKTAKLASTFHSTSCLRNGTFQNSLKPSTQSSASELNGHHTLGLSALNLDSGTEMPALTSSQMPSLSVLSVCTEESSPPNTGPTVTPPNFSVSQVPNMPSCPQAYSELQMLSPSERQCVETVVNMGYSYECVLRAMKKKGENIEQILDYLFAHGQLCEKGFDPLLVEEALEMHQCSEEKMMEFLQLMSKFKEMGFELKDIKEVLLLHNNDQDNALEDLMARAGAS
# UniProt Q9NU19: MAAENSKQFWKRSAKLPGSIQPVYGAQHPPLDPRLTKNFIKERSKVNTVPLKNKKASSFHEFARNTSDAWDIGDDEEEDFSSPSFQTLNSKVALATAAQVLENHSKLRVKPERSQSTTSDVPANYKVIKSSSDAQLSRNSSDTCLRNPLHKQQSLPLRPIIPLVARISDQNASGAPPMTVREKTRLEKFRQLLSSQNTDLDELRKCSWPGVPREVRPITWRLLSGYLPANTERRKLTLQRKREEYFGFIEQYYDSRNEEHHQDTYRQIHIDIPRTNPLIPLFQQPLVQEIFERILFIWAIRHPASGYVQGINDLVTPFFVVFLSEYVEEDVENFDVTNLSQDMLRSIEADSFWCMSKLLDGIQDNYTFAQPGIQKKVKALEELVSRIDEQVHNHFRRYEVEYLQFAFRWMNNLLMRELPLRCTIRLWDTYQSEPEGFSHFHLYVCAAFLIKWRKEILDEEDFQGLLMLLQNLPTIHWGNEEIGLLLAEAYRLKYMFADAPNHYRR
# UniProt Q9P0P0: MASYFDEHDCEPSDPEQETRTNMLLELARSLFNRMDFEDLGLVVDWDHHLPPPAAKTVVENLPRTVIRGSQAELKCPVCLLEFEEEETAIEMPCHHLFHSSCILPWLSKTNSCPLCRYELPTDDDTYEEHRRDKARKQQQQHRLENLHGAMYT
# UniProt Q9NX24: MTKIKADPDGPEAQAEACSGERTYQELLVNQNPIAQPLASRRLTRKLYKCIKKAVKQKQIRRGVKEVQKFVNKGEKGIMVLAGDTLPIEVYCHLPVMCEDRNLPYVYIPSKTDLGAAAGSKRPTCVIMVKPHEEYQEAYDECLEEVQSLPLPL
# UniProt Q9P1Y5: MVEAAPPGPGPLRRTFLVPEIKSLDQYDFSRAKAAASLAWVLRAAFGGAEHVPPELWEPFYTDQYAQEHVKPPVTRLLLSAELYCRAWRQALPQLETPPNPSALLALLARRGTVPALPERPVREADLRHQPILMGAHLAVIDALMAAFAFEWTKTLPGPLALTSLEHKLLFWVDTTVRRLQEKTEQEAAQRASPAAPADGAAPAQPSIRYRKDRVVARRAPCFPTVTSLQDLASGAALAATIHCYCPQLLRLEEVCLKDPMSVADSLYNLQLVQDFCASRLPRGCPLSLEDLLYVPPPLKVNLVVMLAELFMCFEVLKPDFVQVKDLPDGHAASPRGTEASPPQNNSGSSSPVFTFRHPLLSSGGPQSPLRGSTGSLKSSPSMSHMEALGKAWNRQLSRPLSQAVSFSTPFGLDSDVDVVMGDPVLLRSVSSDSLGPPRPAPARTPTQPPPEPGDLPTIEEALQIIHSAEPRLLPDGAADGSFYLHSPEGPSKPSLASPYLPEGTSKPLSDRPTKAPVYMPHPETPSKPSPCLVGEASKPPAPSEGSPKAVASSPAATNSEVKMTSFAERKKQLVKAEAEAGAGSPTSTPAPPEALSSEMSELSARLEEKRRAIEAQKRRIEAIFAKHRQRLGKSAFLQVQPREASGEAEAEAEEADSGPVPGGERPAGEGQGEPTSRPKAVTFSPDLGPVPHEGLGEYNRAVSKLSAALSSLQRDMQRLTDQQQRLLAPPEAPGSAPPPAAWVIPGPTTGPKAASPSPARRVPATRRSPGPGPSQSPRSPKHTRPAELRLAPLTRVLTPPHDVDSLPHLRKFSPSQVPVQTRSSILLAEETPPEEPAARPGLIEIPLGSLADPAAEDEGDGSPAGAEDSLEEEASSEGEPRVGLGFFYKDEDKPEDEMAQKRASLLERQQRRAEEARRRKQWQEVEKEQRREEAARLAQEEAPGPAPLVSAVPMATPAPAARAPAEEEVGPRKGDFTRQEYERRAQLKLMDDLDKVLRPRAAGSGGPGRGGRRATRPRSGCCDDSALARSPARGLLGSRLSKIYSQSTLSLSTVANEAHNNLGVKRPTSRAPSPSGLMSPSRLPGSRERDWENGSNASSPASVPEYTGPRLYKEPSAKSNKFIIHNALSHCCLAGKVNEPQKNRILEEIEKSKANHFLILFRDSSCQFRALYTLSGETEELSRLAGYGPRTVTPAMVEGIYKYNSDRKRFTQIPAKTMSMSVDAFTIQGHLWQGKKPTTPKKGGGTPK
# UniProt Q9NX62: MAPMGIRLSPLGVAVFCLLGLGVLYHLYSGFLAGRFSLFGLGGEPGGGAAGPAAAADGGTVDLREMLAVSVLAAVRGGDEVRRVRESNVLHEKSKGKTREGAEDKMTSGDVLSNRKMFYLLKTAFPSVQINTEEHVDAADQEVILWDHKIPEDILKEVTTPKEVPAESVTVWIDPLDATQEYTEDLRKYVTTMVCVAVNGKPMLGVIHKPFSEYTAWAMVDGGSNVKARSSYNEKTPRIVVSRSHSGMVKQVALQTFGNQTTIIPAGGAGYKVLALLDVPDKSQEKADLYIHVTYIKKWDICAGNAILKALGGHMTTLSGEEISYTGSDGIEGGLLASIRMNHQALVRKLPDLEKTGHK
# ± gives the standard deviation of the averaged measurements. This is a selection; strong and weak results do not stand in their true shares.
# Compound: Nc1ncnc2c1ncn2[C@@H]1O[C@H](COP(=O)(O)OP(=O)(O)OP(=O)(O)O)[C@@H](O)[C@H]1O [adenosine triphosphate]
# Assay: NP40-soluble protein abundance relative to vehicle (solubility fold change) (ratio); higher = more soluble protein in presence of ATP
# Method in brief: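 In three independent experiments, Jurkat crude lysate made by Dounce homogenisation was treated for 10 min at room temperature and then 3 min at 37 °C with eight concentrations ranging from 0.1 to 10 mM. It was then solubilised with 0.8% NP40 plus benzonase for 60 min at 4 °C and ultracentrifuged. The supernatant was TMT-labelled for LC-MS/MS, and each value is the fold change against the detergent-processed vehicle for the same replicate, using vsn-normalised intensities.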
Target,NP40-soluble protein abundance (concentration: 1mM),NP40-soluble protein abundance (concentration: 2mM),NP40-soluble protein abundance (concentration: 4mM),NP40-soluble protein abundance (concentration: 6mM),NP40-soluble protein abundance (concentration: 8mM),NP40-soluble protein abundance (concentration: 10mM)
ASF1B (UniProt Q9NVP2),1.04 ± 0.076,1.03 ± 0.11,1 ± 0.043,0.995 ± 0.1,1.04 ± 0.048,0.996 ± 0.089
LZTFL1 (UniProt Q9NQ48),0.994 ± 0.099,0.935 ± 0.022,0.966 ± 0.018,0.984 ± 0.1,1.03 ± 0.046,0.84 ± 0.13
UniProt Q9NW75 and related entries,1.03 ± 0.045,1.03 ± 0.025,1.03 ± 0.03,1.01 ± 0.031,1.05 ± 0.04,1.03 ± 0.046
TMEM160 (UniProt Q9NX00),1.12 ± 0.067,1.09 ± 0.14,1.14 ± 0.19,1.14 ± 0.12,1.2 ± 0.15,1.2 ± 0.065
THUMPD1 (UniProt Q9NXG2),0.934 ± 0.038,0.955 ± 0.012,0.952 ± 0.026,0.983 ± 0.013,0.96 ± 0.013,0.931 ± 0.079
ZBTB40 (UniProt Q9NUA8),0.977 ± 0.024,1.01 ± 0.03,0.965 ± 0.064,0.933 ± 0.067,0.925 ± 0.025,0.917 ± 0.027
UniProt Q9NZQ3 and related entries,1.03 ± 0.031,1.06 ± 0.022,1.03 ± 0.065,1.02 ± 0.084,1.03 ± 0.033,1.06 ± 0.027
SNX15 (UniProt Q9NRS6),0.983 ± 0.044,0.975 ± 0.041,1 ± 0.05,0.919 ± 0.068,0.9726 ± 0.0068,0.956 ± 0.012
HIF1AN (UniProt Q9NWT6),0.996 ± 0.04,0.977 ± 0.02,0.9548 ± 0.0048,0.929 ± 0.079,0.9589 ± 0.0057,0.9413 ± 0.0055
TMEM9B (UniProt Q9NQ34),0.946 ± 0.055,0.928 ± 0.07,0.942 ± 0.014,0.944 ± 0.088,0.928 ± 0.0098,0.89 ± 0.043
PPP4R2 (UniProt Q9NY27),0.918 ± 0.077,0.953 ± 0.032,0.93 ± 0.051,0.984 ± 0.04,0.927 ± 0.038,0.933 ± 0.014
MED4 (UniProt Q9NPJ6),0.986 ± 0.073,1 ± 0.061,0.986 ± 0.054,1.04 ± 0.079,1 ± 0.023,0.943 ± 0.098
GNL3L (UniProt Q9NVN8),0.993 ± 0.067,1.04 ± 0.015,1.03 ± 0.09,1.19 ± 0.22,1.19 ± 0.21,1.12 ± 0.063
UniProt Q9P0L0 and related entries,0.965 ± 0.057,0.949 ± 0.014,0.921 ± 0.022,0.999 ± 0.026,0.9425 ± 0.0056,0.916 ± 0.032
UniProt Q9NZT2 and related entries,0.9342 ± 0.0093,0.9448 ± 0.0094,0.941 ± 0.027,0.915 ± 0.033,0.9361 ± 0.0074,0.943 ± 0.017
UniProt Q9NRG9 and related entries,1.06 ± 0.083,1.03 ± 0.1,1.02 ± 0.061,1.04 ± 0.097,1.05 ± 0.1,1.01 ± 0.12
UniProt Q9NT62 and related entries,0.964 ± 0.032,0.973 ± 0.023,0.957 ± 0.018,0.978 ± 0.036,0.944 ± 0.055,0.918 ± 0.044
HMG20B (UniProt Q9P0W2),1.03 ± 0.13,0.997 ± 0.1,1 ± 0.13,1.07 ± 0.15,1.03 ± 0.042,0.975 ± 0.1
UniProt Q9NW08 and related entries,1.05 ± 0.059,1.03 ± 0.051,1.04 ± 0.037,0.975 ± 0.03,1.1 ± 0.042,1.06 ± 0.043
UniProt Q9NRA8 and related entries,1.01 ± 0.075,1 ± 0.077,1.04 ± 0.038,1.07 ± 0.092,1.01 ± 0.019,1.05 ± 0.056
UniProt Q9NX04 and related entries,1.23 ± 0.11,1.31 ± 0.066,1.27 ± 0.21,1.29 ± 0.19,1.28 ± 0.22,1.13 ± 0.1
UniProt Q9NUP9,0.975 ± 0.032,0.991 ± 0.033,0.965 ± 0.04,0.962 ± 0.02,0.955 ± 0.0061,0.885 ± 0.046
IGF2BP1 (UniProt Q9NZI8),0.9816 ± 0.0045,0.979 ± 0.024,0.974 ± 0.016,1.01 ± 0.042,1 ± 0.024,0.996 ± 0.022
CISD1 (UniProt Q9NZ45),0.999 ± 0.09,1.02 ± 0.045,1.01 ± 0.052,0.979 ± 0.044,0.989 ± 0.018,0.909 ± 0.095

# Four entries drawn at random from those above:
Target,NP40-soluble protein abundance (concentration: 1mM),NP40-soluble protein abundance (concentration: 2mM),NP40-soluble protein abundance (concentration: 4mM),NP40-soluble protein abundance (concentration: 6mM),NP40-soluble protein abundance (concentration: 8mM),NP40-soluble protein abundance (concentration: 10mM)
CISD1 (UniProt Q9NZ45),0.999 ± 0.09,1.02 ± 0.045,1.01 ± 0.052,0.979 ± 0.044,0.989 ± 0.018,0.909 ± 0.095
UniProt Q9P0L0 and related entries,0.965 ± 0.057,0.949 ± 0.014,0.921 ± 0.022,0.999 ± 0.026,0.9425 ± 0.0056,0.916 ± 0.032
PPP4R2 (UniProt Q9NY27),0.918 ± 0.077,0.953 ± 0.032,0.93 ± 0.051,0.984 ± 0.04,0.927 ± 0.038,0.933 ± 0.014
UniProt Q9NUP9,0.975 ± 0.032,0.991 ± 0.033,0.965 ± 0.04,0.962 ± 0.02,0.955 ± 0.0061,0.885 ± 0.046

# Next part.

Target,NP40-soluble protein abundance (concentration: 1mM),NP40-soluble protein abundance (concentration: 2mM),NP40-soluble protein abundance (concentration: 4mM),NP40-soluble protein abundance (concentration: 6mM),NP40-soluble protein abundance (concentration: 8mM),NP40-soluble protein abundance (concentration: 10mM)
COMMD8 (UniProt Q9NX08),1.04 ± 0.11,0.929 ± 0.037,0.914 ± 0.049,0.938 ± 0.056,0.951 ± 0.029,0.836 ± 0.035
UniProt Q9NXE8,1.11 ± 0.08,1.11 ± 0.043,1.09 ± 0.1,1.11 ± 0.052,1.13 ± 0.089,1.21 ± 0.021
ANLN (UniProt Q9NQW6),0.986 ± 0.042,0.983 ± 0.032,0.962 ± 0.029,1 ± 0.016,0.947 ± 0.018,0.949 ± 0.014
HOMER3 (UniProt Q9NSC5),1.05 ± 0.054,1.04 ± 0.032,1.05 ± 0.045,1.09 ± 0.11,1.08 ± 0.012,1.12 ± 0.021
CRIPT (UniProt Q9P021),1.12 ± 0.12,1.08 ± 0.092,1.09 ± 0.093,1.09 ± 0.052,1.11 ± 0.075,1.01 ± 0.15
FAM120C (UniProt Q9NX05),1.02 ± 0.086,1.02 ± 0.066,1.12 ± 0.12,1.17 ± 0.14,1.31 ± 0.11,1.35 ± 0.097
FBXO28 (UniProt Q9NVF7),1.28 ± 0.019,1.31 ± 0.1,1.37 ± 0.12,1.44 ± 0.22,1.44 ± 0.14,1.32 ± 0.01
UniProt Q9NQS7 and related entries,1.155 ± 0.0074,1.16 ± 0.026,1.28 ± 0.051,1.35 ± 0.069,1.36 ± 0.066,1.4 ± 0.06
UniProt Q9NZ09 and related entries,0.955 ± 0.12,0.938 ± 0.035,0.976 ± 0.1,0.978 ± 0.064,0.942 ± 0.071,0.964 ± 0.11
UniProt Q9NPQ8 and related entries,0.95 ± 0.025,0.973 ± 0.016,0.974 ± 0.025,0.947 ± 0.03,0.914 ± 0.024,0.969 ± 0.011
C9orf78 (UniProt Q9NZ63),0.898 ± 0.039,0.904 ± 0.0054,0.88 ± 0.014,0.935 ± 0.029,0.901 ± 0.028,0.873 ± 0.027
TBC1D22B (UniProt Q9NU19),1.01 ± 0.018,1.04 ± 0.032,1.01 ± 0.043,1.02 ± 0.046,0.984 ± 0.023,1.02 ± 0.053
UniProt Q9NPH0 and related entries,0.953 ± 0.15,1.09 ± 0.018,1.11 ± 0.085,1.05 ± 0.021,1.08 ± 0.071,1.02 ± 0.15
RNF181 (UniProt Q9P0P0),0.945 ± 0.078,0.969 ± 0.067,0.972 ± 0.051,0.982 ± 0.069,0.949 ± 0.038,0.915 ± 0.057
UTP3 (UniProt Q9NQZ2),0.927 ± 0.05,0.941 ± 0.011,0.931 ± 0.022,0.941 ± 0.04,0.911 ± 0.015,0.922 ± 0.027
EXOSC5 (UniProt Q9NQT4),1.09 ± 0.049,1.1 ± 0.041,1.15 ± 0.1,1.19 ± 0.073,1.24 ± 0.086,1.27 ± 0.097
NHP2 (UniProt Q9NX24),1.05 ± 0.086,1.1 ± 0.12,1.2 ± 0.12,1.35 ± 0.13,1.5 ± 0.094,1.65 ± 0.16
PFDN4 (UniProt Q9NQP4),0.864 ± 0.1,0.936 ± 0.16,0.908 ± 0.088,1.04 ± 0.18,0.835 ± 0.048,0.86 ± 0.14
ADPRHL2 (UniProt Q9NX46),0.951 ± 0.037,0.977 ± 0.04,0.971 ± 0.06,0.926 ± 0.069,0.939 ± 0.016,0.95 ± 0.048
UniProt Q9P1Y5 and related entries,1.02 ± 0.13,1.03 ± 0.064,1.11 ± 0.099,1.13 ± 0.066,1.05 ± 0.071,1.12 ± 0.071
TXNL4B (UniProt Q9NX01),0.983 ± 0.025,0.967 ± 0.07,0.994 ± 0.068,0.946 ± 0.038,0.981 ± 0.041,0.954 ± 0.028
C12orf4 (UniProt Q9NQ89),1.02 ± 0.15,0.973 ± 0.2,1.03 ± 0.18,0.997 ± 0.17,0.896 ± 0.032,1.01 ± 0.12
IMPAD1 (UniProt Q9NX62),0.968 ± 0.024,0.949 ± 0.018,0.927 ± 0.01,0.992 ± 0.011,0.919 ± 0.029,0.925 ± 0.011
OSGEP (UniProt Q9NPF4),0.961 ± 0.039,0.967 ± 0.041,0.956 ± 0.017,0.931 ± 0.043,0.934 ± 0.027,0.928 ± 0.025
